Results are given in words; binding and its absence hold for the method and conditions named. Some entries that bind do so weakly or less than the wild type.
Assays:
Test in all cases: two-hybrid; FBX fused to Gal4-DB, ASK fused to Gal4-AD; yeast mating; selection on SD without Leu, Trp, His, Ade (high strength) or without Leu, Trp, His (low strength); every combination examined twice
[1] = target: T1, F-box (FBX) protein At1g47730 (Arabidopsis thaliana) (UniProt Q9SXA0)
T1 sequence: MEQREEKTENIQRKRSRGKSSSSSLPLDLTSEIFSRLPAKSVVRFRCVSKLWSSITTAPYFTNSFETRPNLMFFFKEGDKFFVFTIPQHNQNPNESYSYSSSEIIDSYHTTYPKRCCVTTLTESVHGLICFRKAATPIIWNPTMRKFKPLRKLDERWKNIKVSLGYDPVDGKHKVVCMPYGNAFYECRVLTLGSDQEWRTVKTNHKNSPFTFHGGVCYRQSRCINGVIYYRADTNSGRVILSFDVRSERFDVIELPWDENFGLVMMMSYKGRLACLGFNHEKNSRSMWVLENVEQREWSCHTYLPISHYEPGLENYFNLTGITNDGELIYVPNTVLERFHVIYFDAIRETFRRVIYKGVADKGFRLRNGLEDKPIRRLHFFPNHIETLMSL

[2] = target: T2, F-box (FBX) protein At1g51290 (Arabidopsis thaliana) (UniProt Q9SYD0)
T2 sequence: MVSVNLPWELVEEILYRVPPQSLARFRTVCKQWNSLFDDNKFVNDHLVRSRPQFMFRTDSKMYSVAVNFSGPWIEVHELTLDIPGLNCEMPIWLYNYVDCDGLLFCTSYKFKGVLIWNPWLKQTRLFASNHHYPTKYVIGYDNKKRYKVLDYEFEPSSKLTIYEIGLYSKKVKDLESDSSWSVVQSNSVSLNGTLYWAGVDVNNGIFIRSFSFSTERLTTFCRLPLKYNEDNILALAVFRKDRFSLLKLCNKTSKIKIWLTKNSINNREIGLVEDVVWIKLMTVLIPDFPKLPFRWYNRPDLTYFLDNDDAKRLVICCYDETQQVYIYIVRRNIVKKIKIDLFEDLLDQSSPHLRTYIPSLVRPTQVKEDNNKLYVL

[3] = target: T3, F-box (FBX) protein At2g31470 (Arabidopsis thaliana) (UniProt Q5BPS3)
T3 sequence: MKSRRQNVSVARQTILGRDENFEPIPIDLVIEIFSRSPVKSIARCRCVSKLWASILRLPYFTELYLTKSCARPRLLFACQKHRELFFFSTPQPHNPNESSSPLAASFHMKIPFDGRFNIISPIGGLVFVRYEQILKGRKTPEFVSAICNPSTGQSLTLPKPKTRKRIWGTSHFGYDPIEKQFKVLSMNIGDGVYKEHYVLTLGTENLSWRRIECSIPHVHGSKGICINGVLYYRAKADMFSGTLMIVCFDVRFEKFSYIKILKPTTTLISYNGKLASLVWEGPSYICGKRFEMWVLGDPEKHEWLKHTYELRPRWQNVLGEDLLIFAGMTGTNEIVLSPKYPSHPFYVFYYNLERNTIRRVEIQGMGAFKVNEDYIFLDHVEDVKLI

[4] = target: T4, F-box (FBX) protein At2g43270 (Arabidopsis thaliana) (UniProt Q1PEU9)
T4 sequence: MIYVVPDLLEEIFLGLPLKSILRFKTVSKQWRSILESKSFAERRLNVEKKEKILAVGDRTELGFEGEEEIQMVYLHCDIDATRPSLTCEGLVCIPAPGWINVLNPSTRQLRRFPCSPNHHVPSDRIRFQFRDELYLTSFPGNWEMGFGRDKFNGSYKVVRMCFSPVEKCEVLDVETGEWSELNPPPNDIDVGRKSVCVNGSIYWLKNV

Measured: binding

B1: Arabidopsis SKP1-LIKE 14 (ASK14) (protein, UniProt O81057 1-149)
chain: MSSNKIVLSSSDGESFEVEEAVARKLKIVEHMIEDDCVVTEVPLQNVTGKILSIVVEYCKKHVVDEESDEFKTWDEEFMKKFDQPTVFQLLLAANYLNIKGLLDLSAQTVADRIKDKTPEEIREIFNIENDFTPEEEAAVRKENAWAFE
binds: all assays above

From PMC3499479
